No constants are given. Whether binding was seen depends on the method and setting. Binding seen in cells or lysates may run through a third protein. Some entries that bind do so weakly or less than the wild type. Where a sequence is shown, tags or fusion partners need not be part of it.
Molecular target: T1, myc-tagged P0WT (P0myc) (mouse) (UniProt P27573)
T1 sequence: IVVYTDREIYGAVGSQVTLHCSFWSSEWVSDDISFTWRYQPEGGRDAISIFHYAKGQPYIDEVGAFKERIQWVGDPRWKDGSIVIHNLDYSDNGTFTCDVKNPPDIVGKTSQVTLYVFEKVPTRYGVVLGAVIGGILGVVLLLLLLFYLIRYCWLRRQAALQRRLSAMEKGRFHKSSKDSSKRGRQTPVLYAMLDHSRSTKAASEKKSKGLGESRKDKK
Experiment: co-IP

B1: P0Q215X (truncated Protein Zero encoded by the Mpz Q215X nonsense mutation) (domain or fragment, UniProt P27573 30-214)
chain: IVVYTDREIYGAVGSQVTLHCSFWSSEWVSDDISFTWRYQPEGGRDAISIFHYAKGQPYIDEVGAFKERIQWVGDPRWKDGSIVIHNLDYSDNGTFTCDVKNPPDIVGKTSQVTLYVFEKVPTRYGVVLGAVIGGILGVVLLLLLLFYLIRYCWLRRQAALQRRLSAMEKGRFHKSSKDSSKRGR
With B1 as the binder, how does the binding read?
Its binding is “binds”.
